Measured values: publication PMC2994903
No constants are given. Whether binding was seen depends on the method and setting. For some assays here: In cells and extracts the contact can be indirect. Some entries that bind do so weakly or less than the wild type. For some assays here: Sequences can lack the tags named with a protein. One block for each molecule: values may come before it.

Chains of the proteins cited; added tags and fusions are not shown.
UniProt Q9UI95: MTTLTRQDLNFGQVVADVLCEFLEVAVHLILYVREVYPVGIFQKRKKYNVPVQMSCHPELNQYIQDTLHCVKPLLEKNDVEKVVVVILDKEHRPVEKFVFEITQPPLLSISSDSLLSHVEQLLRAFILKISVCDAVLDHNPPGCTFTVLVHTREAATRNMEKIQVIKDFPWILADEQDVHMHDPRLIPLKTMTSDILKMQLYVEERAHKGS
UniProt Q00610: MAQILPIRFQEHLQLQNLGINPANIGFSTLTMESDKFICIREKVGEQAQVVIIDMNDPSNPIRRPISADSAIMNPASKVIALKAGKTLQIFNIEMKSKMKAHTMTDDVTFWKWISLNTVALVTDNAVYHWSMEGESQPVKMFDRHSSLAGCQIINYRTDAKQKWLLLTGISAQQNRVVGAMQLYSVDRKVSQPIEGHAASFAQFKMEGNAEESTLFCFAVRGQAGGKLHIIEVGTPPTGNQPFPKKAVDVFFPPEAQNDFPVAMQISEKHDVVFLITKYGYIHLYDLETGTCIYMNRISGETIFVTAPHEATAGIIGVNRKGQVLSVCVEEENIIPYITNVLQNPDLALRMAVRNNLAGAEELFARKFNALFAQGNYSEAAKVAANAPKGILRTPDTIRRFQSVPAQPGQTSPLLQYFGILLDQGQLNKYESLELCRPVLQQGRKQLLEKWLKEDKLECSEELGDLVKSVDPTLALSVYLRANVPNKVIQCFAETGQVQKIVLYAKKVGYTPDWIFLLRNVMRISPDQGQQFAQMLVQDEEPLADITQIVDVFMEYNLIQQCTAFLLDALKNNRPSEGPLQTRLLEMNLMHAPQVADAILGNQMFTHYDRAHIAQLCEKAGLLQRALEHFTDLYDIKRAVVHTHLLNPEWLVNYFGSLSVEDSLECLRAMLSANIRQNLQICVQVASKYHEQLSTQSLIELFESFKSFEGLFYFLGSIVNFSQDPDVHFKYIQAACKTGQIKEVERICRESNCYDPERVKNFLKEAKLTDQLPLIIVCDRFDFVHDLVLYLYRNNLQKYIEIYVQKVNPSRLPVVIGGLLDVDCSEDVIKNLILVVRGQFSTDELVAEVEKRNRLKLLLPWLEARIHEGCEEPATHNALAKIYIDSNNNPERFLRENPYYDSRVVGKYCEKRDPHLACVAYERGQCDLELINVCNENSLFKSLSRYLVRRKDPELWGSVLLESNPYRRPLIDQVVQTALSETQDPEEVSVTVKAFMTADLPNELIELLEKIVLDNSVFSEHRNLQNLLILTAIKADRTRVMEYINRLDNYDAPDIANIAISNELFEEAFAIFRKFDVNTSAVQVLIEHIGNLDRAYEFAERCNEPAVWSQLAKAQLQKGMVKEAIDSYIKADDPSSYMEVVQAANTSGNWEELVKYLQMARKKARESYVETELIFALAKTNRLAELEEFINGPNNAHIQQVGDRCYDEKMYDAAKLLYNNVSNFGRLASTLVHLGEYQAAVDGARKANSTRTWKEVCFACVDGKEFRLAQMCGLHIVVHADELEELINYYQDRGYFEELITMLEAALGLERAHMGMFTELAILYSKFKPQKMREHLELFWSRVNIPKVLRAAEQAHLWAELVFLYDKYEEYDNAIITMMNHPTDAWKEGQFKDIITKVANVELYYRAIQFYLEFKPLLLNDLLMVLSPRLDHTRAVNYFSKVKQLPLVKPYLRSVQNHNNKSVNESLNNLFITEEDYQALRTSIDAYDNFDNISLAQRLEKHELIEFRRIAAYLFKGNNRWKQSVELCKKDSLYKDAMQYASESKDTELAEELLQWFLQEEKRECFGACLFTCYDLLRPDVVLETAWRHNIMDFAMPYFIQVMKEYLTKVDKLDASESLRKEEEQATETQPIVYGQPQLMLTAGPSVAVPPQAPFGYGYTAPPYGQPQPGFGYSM

Legend:
[1] = target: T1, GST-CLTA fusion protein, full length (human) (UniProt P09496); assay: pull-down; GST-CLTA or GST on glutathione Sepharose 4B, incubated overnight at 4°C with lysates of U2OS cells expressing HA-MAD2B; washes with 150 mM or 100 mM NaCl and Triton X-100; western blot; only the target purified
T1 sequence: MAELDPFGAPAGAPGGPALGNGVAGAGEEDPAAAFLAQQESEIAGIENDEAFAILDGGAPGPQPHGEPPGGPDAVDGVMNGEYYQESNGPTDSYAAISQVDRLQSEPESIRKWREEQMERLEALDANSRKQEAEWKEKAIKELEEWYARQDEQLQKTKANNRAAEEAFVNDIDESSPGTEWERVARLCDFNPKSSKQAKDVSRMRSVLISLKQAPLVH

[2] = target: endogenous MAD2B (human (endogenous in U2OS)) (UniProt Q9UI95); assay: co-IP; whole cell lysates of U2OS cells labelled with 35S methionine; IP with anti-MAD2B, anti-CLTA or control IgG; labelled bands on gel
[3] = target: mitotic arrest deficient protein MAD2B, full coding sequence, two-hybrid bait (human) (UniProt Q9UI95); assay: two-hybrid; screen of a human testis cDNA library (pAD-GAL4) with MAD2B bait (pBDT3C) in yeast pJ69-4A; growth on SD -HALW, LacZ filter lift; retransformation of the clones with bait and control plasmids
[4] = target: HA-tagged MAD2B, full-length (human) (UniProt Q9UI95); assay: co-IP; U2OS cells transiently transfected with HA-MAD2B and FLAG-CLTA; IP with anti-MAD2B antibody or control rabbit IgG, blot with anti-FLAG; lysis buffer PBS, 10% glycerol, 0.1% NP40

Molecule: HA-tagged MAD2B, full-length (from UniProt Q9UI95 1-211)
binding [1]: binds

B1: CLTA library clone coding for the C-terminal 100 amino acids, two-hybrid prey (domain or fragment, UniProt P09496-2 119-218)
chain: ERLEALDANSRKQEAEWKEKAIKELEEWYARQDEQLQKTKANNRAAEEAFVNDIDESSPGTEWERVARLCDFNPKSSKQAKDVSRMRSVLISLKQAPLVH
binding [3]: binds

B3: FLAG-tagged CLTA, full length (protein, UniProt P09496-2 1-218)
chain: T1 sequence
binding [4]: binds

Further lines, results first:

binding [2]: binds
Molecule: endogenous clathrin heavy chain (CLTC) (from UniProt Q00610 1-1675)

binding [3]: binds
B2: clathrin light chain A (CLTA), full-length, two-hybrid prey (protein, UniProt P09496-2 1-218)
chain: T1 sequence
